Assay results: US5837282A, “Ionophore-mediated liposome loading” (priority 1996, dated 1998)
Like-named read-outs stand apart in the source and are kept apart here.

Assays:
[1] = for uptake prior to addition of A23187: D/L 0.35, 45 min
[2] = SPM/Chol LUVs; i.v., mice
[3] = Drug uptake/leakage after removal of nigericin (spin column, dialysis); conditions: SPM/Chol LUVs; nigericin 1 ng/μmol lipid; D/L 0.2; 60 °C
Method: Uptake was monitored for LUVs containing 300 mM K2 SO4 at a nigericin concentration of 1 ng/μmol lipid (.box-solid.), and for LUVs which were preincubated with nigericin for 5 min at 60° C., and then passed down a spin column prior to addition of the drug (.circle-solid.).
Thus, an aliquot of nigericin (1 ng NIG/μmol lipid) was added to a sample of SPM/Chol LUVs containing 300 mm KH2 PO4 and the temperature was increased to 60° C. for 5 min to ensure association of nigericin with the lipid. The sample was then exhaustively dialysed at room temperature against 300 mM sucrose for 20 hours, following which an aliquot was passed down a spin column prior to drug loading with VINC (FIG. 10B).
To ensure that such was not the case, control uptake experiments were performed on LUVs containing ethylammonium sulfate and amylammonium sulfate which were subjected to the same conditions.

[4] = DSPC/Chol LUVs, 600 mM K2SO4, 10^4-fold reduction of nigericin, 60 °C

O=C(O)c1cn(C2CC2)c2cc(N3CCNCC3)c(F)cc2c1=O [Ciprofloxacin, ciprofloxacin]
time of onset of significant leakage of the drug after uptake ([1]; DSPC/Chol LUVs, 300 mM CaCl2): ≤ 30 min | Retention ([1]; DSPC/Chol LUVs, 300 mM CaCl2, D/L 0.3, A23187 0.1 μg/μmol lipid, 60 °C, external 300 mM sucrose): poor | Retention ([1]; DSPC/Chol LUVs, 300 mM CaCl2, D/L 0.3, A23187 1.0 μg/μmol lipid, 60 °C, external 300 mM sucrose): poor | Retention ([1]; DSPC/Chol LUVs, 300 mM MgSO4, D/L 0.34, A23187 1.0 μg/μmol lipid, 60 °C, external 300 mM sucrose): excellent | stability of uptake ([1]; DSPC/Chol LUVs, 300 mM MnSO4, A23187 0.1 μg/μmol lipid, 60 °C, without EDTA, 3 hours): stable | Retention ([1]; DSPC/Chol LUVs, 300 mM MnSO4, D/L 0.27-0.35, A23187 0.1 μg/μmol lipid, 60 °C, external 300 mM sucrose): excellent | Retention ([1]; DSPC/Chol LUVs, 300 mM MnSO4, D/L 0.27-0.35, A23187 0.1 μg/μmol lipid, 60 °C, external 300 mM sucrose + 3 mM EDTA): excellent | uptake prior to addition of A23187 ([1]; DSPC/Chol LUVs, 300 mM MnSO4, 60 °C, 3 mM external EDTA): about 18% | uptake prior to addition of A23187 ([1]; DSPC/Chol LUVs, 300 mM MnSO4, 60 °C, without EDTA): about 35% | external pH optimum for uptake via both nigericin and A23187 ([1]; SPM/Chol LUVs): ~6 | Retention ([1]; SPM/Chol LUVs, 300 mM MgSO4 pH 6.5, D/L 0.2, A23187 0.1 μg/μmol lipid, 60 °C, external 300 mM sucrose + 15 mM EDTA pH 4.4): excellent | Retention ([1]; SPM/Chol LUVs, 300 mM MgSO4 pH 6.5, D/L 0.2, A23187 0.1 μg/μmol lipid, 60 °C, external 300 mM sucrose + 15 mM EDTA pH 5.9): excellent | Retention ([1]; SPM/Chol LUVs, 300 mM MgSO4 pH 6.5, D/L 0.2, A23187 0.1 μg/μmol lipid, 60 °C, external 300 mM sucrose + 15 mM EDTA pH 7.0): excellent | Retention ([1]; SPM/Chol LUVs, 300 mM MgSO4 pH 6.5, D/L 0.2, A23187 0.1 μg/μmol lipid, 60 °C, external 300 mM sucrose + 20 mM Hepes 15 mM EDTA pH 6.0): excellent | Retention ([1]; SPM/Chol LUVs, 300 mM MgSO4 pH 6.5, D/L 0.2, A23187 0.1 μg/μmol lipid, 60 °C, external 300 mM sucrose + 20 mM Hepes 15 mM EDTA pH 7.0): excellent | Retention ([1]; SPM/Chol LUVs, 300 mM MgSO4 pH 6.5, D/L 0.2, A23187 0.5 μg/μmol lipid, 60 °C, external 300 mM sucrose + 20 mM Hepes 15 mM EDTA pH 6.0): excellent | Retention ([1]; SPM/Chol LUVs, 300 mM MnSO4, D/L 0.2, A23187 0.1 μg/μmol lipid, 60 °C, external 300 mM sucrose + 15 mM EDTA pH 4.4): excellent | Retention ([1]; SPM/Chol LUVs, 300 mM MnSO4, D/L 0.2, A23187 0.1 μg/μmol lipid, 60 °C, external 300 mM sucrose + 15 mM EDTA pH 5.9 (table prints 59)): excellent | in vivo retention, A23187 system versus K2SO4/nigericin [2]: superior | in vivo retention, A23187 system versus methylammonium sulfate LUVs [2]: similar | Retention (DSPC/Chol LUVs, 300 mM K2SO4, D/L 0.3, nigericin 1000 ng/μmol lipid, 60 °C, external 300 mM sucrose (text: over 3 hours)): excellent | Retention (DSPC/Chol LUVs, 300 mM K2SO4, D/L 0.3, nigericin 1000 ng/μmol lipid, 60 °C, external 300 mM sucrose (text: over 3 hours), listed as CIPRO): excellent retention | drug uptake in response to the K+ gradient alone (DSPC/Chol LUVs, 300 mM K2SO4, no nigericin, 60 °C): Little or no drug uptake | rate of uptake [4]: significant decrease | time required to obtain uptake levels of 80% or greater [4]: at least 45 min | change in uptake on reducing nigericin by a factor of 10 (0.1 μg/μmol lipid) or 10^3 (1 ng/μmol lipid) (DSPC/Chol LUVs, 600 mM K2SO4, 60 °C): no change in uptake | Retention (DSPC/Chol LUVs, 600 mM K2SO4, D/L 0.3, nigericin 1 ng/μmol lipid, 60 °C, external 300 mM sucrose): excellent | Retention (DSPC/Chol LUVs, 600 mM K2SO4, D/L 0.3, nigericin 100 ng/μmol lipid, 60 °C, external 300 mM sucrose): excellent | Retention (DSPC/Chol LUVs, 600 mM K2SO4, D/L 0.37, nigericin 0.1 ng/μmol lipid, 60 °C, external 300 mM sucrose): excellent | influence of increasing internal salt concentration to 600 mM on uptake (DSPC/Chol LUVs, K2SO4, nigericin, 60 °C): not influenced | Retention (SPM/Chol LUVs, 300 mM K2SO4 pH 6.1, D/L 0.2, nigericin 0.5 ng/μmol lipid, 70 °C, external 300 mM sucrose + 20 mM Hepes pH 5.5): excellent | Retention (SPM/Chol LUVs, 300 mM K2SO4 pH 6.1, D/L 0.2, nigericin 0.5 ng/μmol lipid, 70 °C, external 300 mM sucrose + 20 mM Hepes pH 7.0): poor | Retention (SPM/Chol LUVs, 300 mM K2SO4 pH 6.1, D/L 0.2, nigericin 1 ng/μmol lipid, 60 °C, external 300 mM sucrose + 20 mM Hepes pH 6.2): excellent | Retention (SPM/Chol LUVs, 300 mM K2SO4 pH 6.1, D/L 0.2, nigericin 1 ng/μmol lipid, 60 °C, external 300 mM sucrose + 20 mM Hepes pH 7.0): excellent | Retention (SPM/Chol LUVs, 300 mM K2SO4 pH 7.4, D/L 0.2, nigericin 1 ng/μmol lipid, 60 °C, external 300 mM sucrose): fair | Retention (SPM/Chol LUVs, 300 mM K2SO4 pH 7.4, D/L 0.2, nigericin 1 ng/μmol lipid, 60 °C, external 300 mM sucrose + 20 mM Hepes pH 6.0): excellent | Retention (SPM/Chol LUVs, 300 mM K2SO4 pH 7.4, D/L 0.2, nigericin 1 ng/μmol lipid, 60 °C, external 300 mM sucrose + 20 mM Hepes pH 7.0): excellent | time to achieve 100% uptake (SPM/Chol LUVs, HEPES-buffered sucrose pH 6.2, 60 °C, nigericin 1 ng/μmol lipid): 60 min | time to achieve 100% uptake (SPM/Chol LUVs, external pH 5.5, 70 °C, nigericin 0.5 ng/μmol lipid): 90 min | rate of uptake after passing LUVs down a G-50 spin column prior to drug addition [3]: significantly reduced
